# PubChem BioAssay AID1224830 – NIAID, 2016
# Purpose: 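Host factors that control LPS-induced TNF expression in human macrophages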 (primary screen)
# Cell system: human THP-1 monocytic leukaemia cells, TNF dual-luciferase reporter clone, PMA-differentiated to macrophage-like cells
# Reagents: siRNA pool against human genes, 50 nM
# Timing: LPS for 4 h, given about 3 days after siRNA transfection
# Conditions: bacterial LPS (TLR4 ligand), 10 ng/ml
# Read-out: 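TNF firefly reporter luminescence divided by renilla, normalised to the plate median, then turned into a robust z-score for each replicate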
# Scale: TNF reporter robust z-score: higher = stronger TNF reporter response to LPS
# Rule for the call: 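a well is active when its z-score exceeds 2.8 or falls below -1.5; control wells carry no call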
# This is an unselected part of about 18,000 reagents. About 2,900 of all reagents (16%) count as active. 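Calls are made per well; low scores hint the gene aids the LPS response, high scores that it dampens it.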 Repeated entries: four replicate wells of each siRNA pool. Reagent sequences are not shown.
target gene,TNF reporter robust z-score,call
KMT5C,-1.04,inactive
KMT5C,0.12,inactive
KMT5C,-0.53,inactive
KMT5C,1.43,inactive
VTI1B,-0.54,inactive
VTI1B,-0.35,inactive
VTI1B,0.04,inactive
VTI1B,0.65,inactive
BORA,0.88,inactive
BORA,-0.32,inactive
BORA,6.53,active
BORA,-0.56,inactive
PAX3,0.42,inactive
PAX3,2.63,inactive
PAX3,-0.06,inactive
PAX3,2.09,inactive
EIF2AK4,2.35,inactive
EIF2AK4,-1.04,inactive
EIF2AK4,-0.66,inactive
EIF2AK4,0.14,inactive
HCN4,0.33,inactive
HCN4,0.39,inactive
HCN4,-0.52,inactive
HCN4,2.78,inactive
MAP4K4,0.7,inactive
MAP4K4,2.01,inactive
MAP4K4,1.06,inactive
MAP4K4,1.96,inactive
POLM,-0.44,inactive
POLM,-0.42,inactive
POLM,-0.6,inactive
POLM,0.36,inactive
TMEM116,-1.26,inactive
TMEM116,-1.41,inactive
TMEM116,-1.32,inactive
TMEM116,-1.56,active
TAFAZZIN,0.71,inactive
TAFAZZIN,-0.16,inactive
TAFAZZIN,0.62,inactive
TAFAZZIN,1,inactive
ADGRL1,0.73,inactive
ADGRL1,0.89,inactive
ADGRL1,2.37,inactive
RBM3,-0.2,inactive
RBM3,-1.48,inactive
RBM3,-0.54,inactive
RBM3,0.08,inactive
WDR81,-0.82,inactive
WDR81,-1.26,inactive
WDR81,-1.12,inactive
WDR81,-0.96,inactive
WDR4,0.49,inactive
WDR4,-0.37,inactive
WDR4,-1.05,inactive
WDR4,0.79,inactive
ACTR1B,0.11,inactive
ACTR1B,-0.23,inactive
ACTR1B,-0.3,inactive
ACTR1B,0.19,inactive

Next part (14 carried over from the part before).
target gene,TNF reporter robust z-score,call
RBM3,-0.54,inactive
RBM3,0.08,inactive
WDR81,-0.82,inactive
WDR81,-1.26,inactive
WDR81,-1.12,inactive
WDR81,-0.96,inactive
WDR4,0.49,inactive
WDR4,-0.37,inactive
WDR4,-1.05,inactive
WDR4,0.79,inactive
ACTR1B,0.11,inactive
ACTR1B,-0.23,inactive
ACTR1B,-0.3,inactive
ACTR1B,0.19,inactive
POLR2C,-0.48,inactive
POLR2C,-0.63,inactive
POLR2C,-0.27,inactive
POLR2C,-0.11,inactive
CNOT11,-0.95,inactive
CNOT11,-0.72,inactive
CNOT11,-0.84,inactive
CNOT11,-1.47,inactive
RASGRF1,0.91,inactive
RASGRF1,2.58,inactive
RASGRF1,-0.69,inactive
RASGRF1,-0.12,inactive
ANKRD46,0.19,inactive
ANKRD46,1.19,inactive
ANKRD46,1.56,inactive
ANKRD46,0.61,inactive
CDCA7L,-0.77,inactive
CDCA7L,-1.05,inactive
CDCA7L,-1.17,inactive
CDCA7L,-0.52,inactive
PKNOX2,1.87,inactive
PKNOX2,2.41,inactive
PKNOX2,1.22,inactive
PKNOX2,1.6,inactive
BROX,-0.83,inactive
BROX,-1.05,inactive
BROX,-0.79,inactive
BROX,-0.78,inactive
ALDH1B1,-0.53,inactive
ALDH1B1,-0.23,inactive
ALDH1B1,-1.05,inactive
ALDH1B1,-0.3,inactive
SMO,-0.23,inactive
SMO,-0.26,inactive
SMO,-0.33,inactive
SMO,-1.01,inactive
DLEC1,2.13,inactive
DLEC1,0.44,inactive
DLEC1,0.13,inactive
DLEC1,1.83,inactive
LCP2,-0.51,inactive
LCP2,-0.33,inactive
LCP2,0.2,inactive
LCP2,0.64,inactive
SIPA1L2,-0.89,inactive
SIPA1L2,-0.6,inactive
SIPA1L2,-0.41,inactive
SIPA1L2,0.23,inactive
OR12D3,0.42,inactive
OR12D3,2.14,inactive
OR12D3,0.43,inactive
OR12D3,1.16,inactive
